Laboratory results taken from paper PMC10906223 (JCI Insight, 2024).

Experiments:
[1] = Microsomal stability assay, CD-1 mouse liver microsomes; assay type: in vitro ADME; conditions: Figure 5D
Experimental: (§1) A total of 445 μL of the working solution was transferred into prewarmed incubation plates for treated (T60) and control (NCF60) measurements. After preincubation (10 minutes at 37°C with constant shaking), 54 μL was transferred to the blank plate, followed by 6 μL of NADPH and 180 μL quenching solution. In parallel, 5 μL of WCDD301 (100 μM) was added into incubation plates (T60 and NCF60) containing microsomes and mixed thoroughly (3 times). For the NCF60 plate, 50 μL of buffer was added, mixed (thoroughly, 3 times), shaken, and incubated at 37°C for 60 minutes. In the quenching plate T0, quenching solution (180 μL) and NADPH cofactor (6 μL) were added. For T60 plate, 54 μL of the mixture was placed into the quenching plate (for T0 point), followed by adding 44 μL NADPH cofactor with shaking incubation at 37°C for 60 minutes. Quenching solution (180 μL) was added to quenching plates at 5, 15, 30, 45, and 60 minutes, and 60 μL of sample was transferred from T60 plate per time point to the quenching plates. For the NCF60 plates, 60 μL sample from the NCF60 incubation plate was transferred to the quenching plate (containing quenching solution) at the 60-minute time point. After plates were shaken for 10 minutes and centrifuged (1,750g, 20 minutes at 4°C), 80 μL of the supernatant was transferred into 240 μL HPLC water for LC-MS/MS analysis. The following first-order kinetic equation was used to calculate half-life (T1/2): [drawing 3]; when
(§2) Then, intrinsic clearance [CLint (microsomal; mic)] and hepatic clearance [CLint (liver)] were predicted using the following equations ([66]): […]

[2] = Microsomal stability assay, human liver microsomes; assay type: in vitro ADME; conditions: Figure 5C
Experimental: as §1, §2

Remaining in hepatic microsomes (100 at 0 min) ([1]; 5 min): 34.8 | Remaining in hepatic microsomes (100 at 0 min) ([1]; 15 min): 1.1 | Remaining in hepatic microsomes (100 at 0 min) ([1]; 30 min): 0.1 | Remaining in hepatic microsomes (100 at 0 min) ([2]; 5 min): 84.9 | Remaining in hepatic microsomes (100 at 0 min) ([2]; 15 min): 45.8 | Remaining in hepatic microsomes (100 at 0 min) ([2]; 30 min): 7.4 | Remaining in hepatic microsomes (100 at 0 min) ([2]; 45 min): 0.2
Structure (SMILES): CCCNCC(O)COc1ccccc1C(=O)CCc1ccccc1 (stereo not shown) [Propafenone]
